We go through three sequences from patent US20110053849.

The series addresses p53 (wild-type, p53-1) (Homo sapiens) (UniProt P04637). Kind of series: EMSA. The note with it: protein in a lysate after overexpression, protein details: expressed from p53-1 plasmid in U2OS cells, variant of LITAF promoter -600~-400. On the technique in general: In EMSA bound probe runs differently from free probe, usually more slowly.
Setting [1] is: binding completely blocked, label: 32P.

Construct, isoform or probe ends are uncertain for at least one entry. At least one result comes from cells or an extract, where the contact may be indirect. A negative result means that nothing was seen under these conditions.

For the sequence “GCCCCCGCCCCCGTCCCCGCCGCCCGGCCCTTTTCTCGGGGCGCCCGAGAGGCCAGCTCAGACCTCCCGGCTCGACAGGCCGGGGACCAG / CCCCAGCCAAGGGCTCAGTGCCCGGGGCCCCCAGCAGGTGCTGGCGCCACCGGCCCCCCGCTGTCTCCCGCTGGTCCCCGGCCTGTCGAG [LITAF promoter -600~-400 del -520~-480]”, the binding result under setting [1] is listed as “no binding”. With “GCCCCCGCCCCCGTCCCCGCCGCCCGGCCCTTTTCTCGGGGCGCCCGAGAGGCCAGCTCAGACCTCCCGGCTCGACAGGCGGCGCGGGCGGCGGTGAGTG / CCCCAGCCAAGGGCTCAGTGCCCGGGGCCCCCAGCAGGTCCCCGGCGTCCCCGCGCCGCACTCACCGCCGCCCGCGCC [LITAF promoter -600~-400 del -480~-440]”, the binding result (deletion did not significantly affect binding, label: …) is recorded as “binds”.

Turning to “GCCCCCGCCCCCGTCCCCGCCGCCCGGCCCTTTTCTCGGGGCGCGGGCGGCGGTGAGTGCGGCGCGGGGACGCCGGGGCGCGGGGACCAG / CCCAGCCAAGGGCTCAGTGCCCGGGGCCCCCAGCAGGTGCTGGCGCCACCGGCCCCCCGCTGTCTCCCGCTGGTCCCCGCGCCCCGGCG [LITAF promoter -600~-400 del -560~-520]”, the binding result under setting [1] is “no binding”.
